The source made the active and inactive calls. No rule for the calls is given here.
Target: MEK5 PB1 domain binding to MEKK2 (MAP3K2) mutant PB1, human
Assay: inhibitors of MEK5 binding to mutant MEKK2, dose response, biochemical, bead multiplex flow cytometry (AID 1895)
Settings: Bead-based multiplex flow cytometry

**Q.** How did the EC50 turn out when `Cc1c2cc(O)c(=O)cc-2oc2cc(O)c(O)cc12` was run?
**A.** The EC50 was inactive: > 30 µM.

From PubChem BioAssay AID1895 (NMMLSC, 2009)
